Measured values taken from paper PMC10539308, “Acetylation reprograms MITF target selectivity and residence time”.
The exact form of at least one protein or probe is not confirmed. A weaker result is weaker than the reference pair of the same experiment. At least one verdict rests on a figure or table, not on a statement of the authors.

The chains behind the UniProt entries cited, without tags or fusion partners. Residues count along the entry.
UniProt Q08874, 287-403 K313R: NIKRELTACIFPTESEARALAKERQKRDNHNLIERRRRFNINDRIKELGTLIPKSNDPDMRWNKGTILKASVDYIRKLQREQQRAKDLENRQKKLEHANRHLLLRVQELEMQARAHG
UniProt Q08874, 287-403 K313Q: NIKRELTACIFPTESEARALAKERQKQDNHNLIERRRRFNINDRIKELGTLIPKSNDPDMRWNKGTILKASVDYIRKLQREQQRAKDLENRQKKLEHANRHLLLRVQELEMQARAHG

Tests used:
MITF DBD K206R K313R = MITF DBD K206R K313R (UniProt Q08874); test: fluorescence anisotropy; conditions: similar to WT; 10 mM Tris/HCl pH 7.5, 300 mM NaCl, 0.01% Triton X-100, 0.1 mg/mL BSA, 25 C, 5 min, 1.33 nM dsDNA; quadratic fit, n=3; recombinant protein; residues 287-403; protein details: His (Ni-NTA purified, pETM-11); label: 3' fluorescein on strand 1
MITF DBD K206Q K313Q = MITF DBD K206Q K313Q (UniProt Q08874); test: fluorescence anisotropy; conditions: 10 mM Tris/HCl pH 7.5, 300 mM NaCl, 0.01% Triton X-100, 0.1 mg/mL BSA, 25 C, 5 min, 1.33 nM dsDNA, quadratic fit, n=3, recombinant protein, residues 287-403, protein details: His (Ni-NTA purified, pETM-11), label: 3' fluorescein on strand 1

Sequence | binding result (MITF DBD K206R K313R) | binding result (MITF DBD K206Q K313Q; largely as Ac-K206) | binding result (MITF DBD K206Q K313Q; largely as Ac-K206, moderate reduction) | binding result (MITF DBD K206Q K313Q; largely as Ac-K206, severe reduction)
GAGATCATGTGATGAC (double strand) [TYR enhancer] | binds | binds more weakly | – | –
GAGATCACGTGATGAC (double strand) [CLEAR-box] | binds | – | binds more weakly | –
GAGATCATGTGTTGAC (double strand) [M-box] | binds more weakly | – | – | binds more weakly
